Results are given in words; binding and its absence hold for the method and conditions named. For some assays here: Binding seen in cells or lysates may run through a third protein. Some binding calls cover weakened binding; strength is not graded here. For some assays here: Tags and fused reporters may be left off the sequences shown.
B1: USP51 (enzyme, UniProt Q70EK9 1-711)
chain: MAQVRETSLPSGSGVRWISGGGGGASPEEAVEKAGKMEEAAAGATKASSRREAEEMKLEPLQEREPAPEENLTWSSSGGDEKVLPSIPLRCHSSSSPVCPRRKPRPRPQPRARSRSQPGLSAPPPPPARPPPPPPPPPPPAPRPRAWRGSRRRSRPGSRPQTRRSCSGDLDGSGDPGGLGDWLLEVEFGQGPTGCSHVESFKVGKNWQKNLRLIYQRFVWSGTPETRKRKAKSCICHVCSTHMNRLHSCLSCVFFGCFTEKHIHKHAETKQHHLAVDLYHGVIYCFMCKDYVYDKDIEQIAKETKEKILRLLTSTSTDVSHQQFMTSGFEDKQSTCETKEQEPKLVKPKKKRRKKSVYTVGLRGLINLGNTCFMNCIVQALTHIPLLKDFFLSDKHKCIMTSPSLCLVCEMSSLFHAMYSGSRTPHIPYKLLHLIWIHAEHLAGYRQQDAHEFLIAILDVLHRHSKDDSGGQEANNPNCCNCIIDQIFTGGLQSDVTCQACHSVSTTIDPCWDISLDLPGSCATFDSQNPERADSTVSRDDHIPGIPSLTDCLQWFTRPEHLGSSAKIKCNSCQSYQESTKQLTMKKLPIVACFHLKRFEHVGKQRRKINTFISFPLELDMTPFLASTKESRMKEGQPPTDCVPNENKYSLFAVINHHGTLESGHYTSFIRQQKDQWFSCDDAIITKATIEDLLYSEGYLLFYHKQGLEKD
B2: His-USP51 (enzyme, UniProt Q70EK9 1-711)
chain: B1 chain

Chains of the proteins cited; added tags and fusions are not shown.
UniProt Q00534: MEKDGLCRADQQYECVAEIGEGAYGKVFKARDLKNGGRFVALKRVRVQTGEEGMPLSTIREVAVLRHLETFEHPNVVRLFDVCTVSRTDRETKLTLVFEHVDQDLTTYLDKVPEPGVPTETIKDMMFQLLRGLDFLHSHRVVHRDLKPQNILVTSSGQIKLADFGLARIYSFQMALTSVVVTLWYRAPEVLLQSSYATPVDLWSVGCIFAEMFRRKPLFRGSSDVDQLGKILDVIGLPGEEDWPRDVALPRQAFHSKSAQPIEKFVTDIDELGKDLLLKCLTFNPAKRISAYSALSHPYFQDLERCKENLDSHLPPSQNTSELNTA
UniProt P11802: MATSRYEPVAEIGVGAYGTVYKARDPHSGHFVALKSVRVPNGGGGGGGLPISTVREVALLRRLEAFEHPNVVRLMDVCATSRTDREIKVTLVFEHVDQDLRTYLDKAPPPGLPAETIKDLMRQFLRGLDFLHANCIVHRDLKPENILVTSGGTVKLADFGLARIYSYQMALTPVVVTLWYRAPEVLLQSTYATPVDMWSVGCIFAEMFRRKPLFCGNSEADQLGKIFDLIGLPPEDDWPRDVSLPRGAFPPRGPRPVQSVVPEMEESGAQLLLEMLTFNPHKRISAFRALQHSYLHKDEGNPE

Tests used:
[1] = target: CDK6 (human (endogenous in MDA-MB-231 and SUM-159)) (UniProt Q00534); test: co-IP; MDA-MB-231 and SUM-159 cells lysed in RIPA buffer; lysate precleared, primary antibody or IgG at 4 °C overnight, protein G Dynabeads 4 h; western blotting
[2] = target: T1, zinc-finger E-box binding homeobox 1 (ZEB1), full-length (human (endogenous in MDA-MB-231 and SUM-159)) (UniProt P37275); test: as above
T1 sequence: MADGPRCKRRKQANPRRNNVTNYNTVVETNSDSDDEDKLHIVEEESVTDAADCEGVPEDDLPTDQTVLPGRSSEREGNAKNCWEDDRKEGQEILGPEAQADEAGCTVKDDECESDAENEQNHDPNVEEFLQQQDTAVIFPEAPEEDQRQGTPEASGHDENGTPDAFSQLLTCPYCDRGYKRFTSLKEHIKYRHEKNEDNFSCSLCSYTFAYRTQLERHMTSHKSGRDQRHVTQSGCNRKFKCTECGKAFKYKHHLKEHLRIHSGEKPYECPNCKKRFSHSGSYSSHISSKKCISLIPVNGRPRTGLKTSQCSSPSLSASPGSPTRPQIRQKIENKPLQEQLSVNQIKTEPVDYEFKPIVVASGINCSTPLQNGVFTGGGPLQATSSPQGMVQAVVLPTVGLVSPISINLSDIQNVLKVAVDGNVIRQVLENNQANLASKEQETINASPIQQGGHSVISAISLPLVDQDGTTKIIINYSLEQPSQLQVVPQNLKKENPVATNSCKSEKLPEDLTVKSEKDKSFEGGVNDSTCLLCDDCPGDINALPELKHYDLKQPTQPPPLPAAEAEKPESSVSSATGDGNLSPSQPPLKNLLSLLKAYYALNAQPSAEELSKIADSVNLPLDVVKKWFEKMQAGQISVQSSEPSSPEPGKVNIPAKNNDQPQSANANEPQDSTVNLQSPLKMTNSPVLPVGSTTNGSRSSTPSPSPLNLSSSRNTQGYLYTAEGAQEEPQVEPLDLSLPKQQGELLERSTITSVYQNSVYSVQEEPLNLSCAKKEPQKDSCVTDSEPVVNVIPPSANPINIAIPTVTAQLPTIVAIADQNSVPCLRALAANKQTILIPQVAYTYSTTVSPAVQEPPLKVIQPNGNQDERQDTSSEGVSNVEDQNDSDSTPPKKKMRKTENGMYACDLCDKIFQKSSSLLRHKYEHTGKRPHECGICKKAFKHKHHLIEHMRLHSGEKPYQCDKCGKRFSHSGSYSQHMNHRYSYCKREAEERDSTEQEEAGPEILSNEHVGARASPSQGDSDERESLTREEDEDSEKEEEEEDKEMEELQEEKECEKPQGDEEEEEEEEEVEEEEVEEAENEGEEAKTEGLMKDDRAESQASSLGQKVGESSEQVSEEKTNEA

[3] = target: CDK4 (human (endogenous in MDA-MB-231 and SUM-159)) (UniProt P11802); test: as above
MBP-CDK4 = MBP-CDK4 (UniProt P11802); test: pull-down; in vitro binding assay, cell-free: purified His-USP51 incubated with purified MBP fusion protein at 4 °C overnight; AmyloseResin beads; western blotting; both purified
MBP-CDK6 = MBP-CDK6 (UniProt Q00534); test: as above

| Binder | binding [1] | binding [2] | binding [3] | binding (MBP-CDK4) | binding (MBP-CDK6) |
| --- | --- | --- | --- | --- | --- |
| B1 | binds | binds | binds |  |  |
| B2 |  |  |  | binds | binds |

From article PMC7064488
